This is an account of results in patent US20240182575A1.

The chains behind the UniProt entries cited, without tags or fusion partners. Where a name states a change or a piece, a line headed by the entry shows the natural chain unless it says otherwise. A line that says so, or that is headed by a name, gives the form on record, which may keep a tag or linker.
human CTLA4 (Y201 mutated to valine) on stably transfected CHO-K1 cells (P16410, form named): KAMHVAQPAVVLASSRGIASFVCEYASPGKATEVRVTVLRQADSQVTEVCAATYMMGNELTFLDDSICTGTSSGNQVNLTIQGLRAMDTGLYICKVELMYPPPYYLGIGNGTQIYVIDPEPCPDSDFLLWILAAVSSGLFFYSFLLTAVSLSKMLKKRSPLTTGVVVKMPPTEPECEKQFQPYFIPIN

Results are given in words; binding and its absence hold for the method and conditions named. Some results given as binding are weak or reduced against the parent protein; the word gives no strength.

Assay [1] addresses human CTLA4 (Y201 mutated to valine) on stably transfected CHO-K1 cells (human) (UniProt P16410). As to the kind of experiment: FACS competition, human CTLA4 CHO cells; blocked ligand CD80-Fc.
Assay [2] has as its target HuCD80-MuIgG2a (extracellular (173aa) domain of human CD80 fused to murine IgG2a Fc+hinge (232 aa), Ancell Cat #510-820) (human; mouse) (UniProt P33681). As to the kind of experiment: competition ELISA, coated CD80-Ig; blocked ligand CTLA4-Ig. In general terms: ELISA stands for enzyme-linked immunosorbent assay.
For assay [3] the target is unchanged. As to the kind of experiment: competition ELISA, coated CD80-Ig; blocked ligand CD28-Ig.

B1: 4CTLAPMP11E3 (VHH, not shown: small tags and cut ends)
VHH: EVQLVESGGGLVEPGGSLRLSCAASGSISSYNVMGWYRQAPGQQRDLVAHIASNGEIMYADSAKGRFTISRDNAKKTVYLQMNSLKPEDTAVYYCKLWVLGNDYWGQGTQVTVSS
As to B1, the binding result in assay [1] is reported as “binds”.

B2: 4CTLAPMP12H2 (VHH, not shown: small tags and cut ends)
VHH: EVQLVESGGGLVEPGGSLRLSCAASGSISSYNVMGWYRQAPGQQRDLVAHIASNGEIMYADSAKGRFTISRDNAKKTVYLQMNSLKPEDTAVYYCKLWVLGNDYWGQRTQVTVSS
Turning to B2, the binding entry in assay [1] is “binds”.

B3: CD8086PMP1E11 (VHH, not shown: small tags and cut ends)
VHH: EVQLVESGGGLVQPGGSLRLSCAASGFTLDYSAIGWFRQAPGKEREGVSYISSSDGSTYYADSVEGRFTISRDNAKNTLYLQMNSLKPEDTAVYYCAAGGPFTVSTMPWLANYWGQGTQVTVSS
Consider B3, for which the binding result in assay [2] and in assay [3] was “binds” throughout.
